Laboratory results: ChEMBL document CHEMBL3045015, “Synthesis and physiological evaluation of new N-nitroso-2,6-dicarbethoxy-3,5-diaryltetrahydro-1,4-thiazine-1,1-dioxides” (Med Chem Res, 2012)

Tested on: Candida albicans
Test: Antifungal activity against Candida albicans MTCC 227 at 10 ug/ml by disk diffusion method
Assay type: functional

With NYSTATIN the inhibition zone (IZ) was 19 mm.
